In experiment [1] the target is p21CIP1/WAF1 (human (endogenous in MDA-MB-231, SCP2, SUM149, SUM159)) (UniProt P38936). Briefly: co-IP; endogenous p21 immunoprecipitated with anti-p21 antibody overnight at 4°C, protein G-Sepharose, washed four times with lysis buffer (10 mM Tris-HCl pH 7.5, 5 mM EDTA, 150 mM NaCl, 1% Triton X-100); immunoblot with anti-cyclin D1 and anti-p21; MDA, SUM149 and SUM159 cells treated with or without ….

Sequences of proteins named here, by UniProt entry; tags and fusion partners are left off.
UniProt P38936: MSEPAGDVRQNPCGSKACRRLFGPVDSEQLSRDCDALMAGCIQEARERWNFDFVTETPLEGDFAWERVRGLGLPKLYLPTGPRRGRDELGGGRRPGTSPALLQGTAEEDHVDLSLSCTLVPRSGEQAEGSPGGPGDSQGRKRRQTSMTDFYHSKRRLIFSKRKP
UniProt P24385: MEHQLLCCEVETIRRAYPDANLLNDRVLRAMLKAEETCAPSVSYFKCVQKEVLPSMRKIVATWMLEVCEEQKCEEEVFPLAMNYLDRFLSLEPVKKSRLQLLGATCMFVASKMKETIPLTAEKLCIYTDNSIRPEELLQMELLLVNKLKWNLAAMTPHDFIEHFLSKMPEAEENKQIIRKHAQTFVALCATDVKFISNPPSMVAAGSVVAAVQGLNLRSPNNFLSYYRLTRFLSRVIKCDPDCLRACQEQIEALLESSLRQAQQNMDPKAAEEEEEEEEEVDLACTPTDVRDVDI

Experiment [2] concerns the target cyclin D1 (human (endogenous in MDA-MB-231, SCP2, SUM149, SUM159)) (UniProt P24385). The experiment in a line: co-IP; endogenous cyclin D1 immunoprecipitated with anti-cyclin D1 antibody overnight at 4°C, protein G-Sepharose, washed four times with lysis buffer (10 mM Tris-HCl pH 7.5, 5 mM EDTA, 150 mM NaCl, 1% Triton X-100); Western blot; MDA and SCP2 cells treated with or without 5 ng/ml TGFβ for 6 or 24 hours. Background: Immunoblotting shows a protein as a band on a membrane.

These are yes or no findings as the source states them, for the method shown. In cells and extracts the contact can be indirect. Some entries that bind do so weakly or less than the wild type.

For cyclin D1 (from UniProt P24385 1-295), in experiment [1], the binding entry was “binds”.

In the case of “p21CIP1/WAF1 (from UniProt P38936 1-164)”, the binding result in experiment [2] is “binds”.

For the origin of these results see PMC4053239.
